Source: the supplement of paper PMC10849652
This is one part of the list.

Amino acid sequences for entries named in this document (tags omitted). A change or cut given only in a name is not applied to a line headed by its entry.
UniProt P48426: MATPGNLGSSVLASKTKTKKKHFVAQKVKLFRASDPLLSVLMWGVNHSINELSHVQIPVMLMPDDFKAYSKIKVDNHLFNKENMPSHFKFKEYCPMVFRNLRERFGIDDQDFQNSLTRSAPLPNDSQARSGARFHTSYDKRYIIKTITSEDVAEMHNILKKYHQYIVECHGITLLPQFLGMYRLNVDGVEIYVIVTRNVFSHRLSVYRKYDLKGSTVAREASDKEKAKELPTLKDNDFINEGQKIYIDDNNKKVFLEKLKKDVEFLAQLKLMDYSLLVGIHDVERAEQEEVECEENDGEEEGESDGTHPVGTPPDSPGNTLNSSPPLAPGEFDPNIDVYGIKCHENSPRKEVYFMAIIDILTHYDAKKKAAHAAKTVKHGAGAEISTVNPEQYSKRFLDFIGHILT
UniProt Q15149: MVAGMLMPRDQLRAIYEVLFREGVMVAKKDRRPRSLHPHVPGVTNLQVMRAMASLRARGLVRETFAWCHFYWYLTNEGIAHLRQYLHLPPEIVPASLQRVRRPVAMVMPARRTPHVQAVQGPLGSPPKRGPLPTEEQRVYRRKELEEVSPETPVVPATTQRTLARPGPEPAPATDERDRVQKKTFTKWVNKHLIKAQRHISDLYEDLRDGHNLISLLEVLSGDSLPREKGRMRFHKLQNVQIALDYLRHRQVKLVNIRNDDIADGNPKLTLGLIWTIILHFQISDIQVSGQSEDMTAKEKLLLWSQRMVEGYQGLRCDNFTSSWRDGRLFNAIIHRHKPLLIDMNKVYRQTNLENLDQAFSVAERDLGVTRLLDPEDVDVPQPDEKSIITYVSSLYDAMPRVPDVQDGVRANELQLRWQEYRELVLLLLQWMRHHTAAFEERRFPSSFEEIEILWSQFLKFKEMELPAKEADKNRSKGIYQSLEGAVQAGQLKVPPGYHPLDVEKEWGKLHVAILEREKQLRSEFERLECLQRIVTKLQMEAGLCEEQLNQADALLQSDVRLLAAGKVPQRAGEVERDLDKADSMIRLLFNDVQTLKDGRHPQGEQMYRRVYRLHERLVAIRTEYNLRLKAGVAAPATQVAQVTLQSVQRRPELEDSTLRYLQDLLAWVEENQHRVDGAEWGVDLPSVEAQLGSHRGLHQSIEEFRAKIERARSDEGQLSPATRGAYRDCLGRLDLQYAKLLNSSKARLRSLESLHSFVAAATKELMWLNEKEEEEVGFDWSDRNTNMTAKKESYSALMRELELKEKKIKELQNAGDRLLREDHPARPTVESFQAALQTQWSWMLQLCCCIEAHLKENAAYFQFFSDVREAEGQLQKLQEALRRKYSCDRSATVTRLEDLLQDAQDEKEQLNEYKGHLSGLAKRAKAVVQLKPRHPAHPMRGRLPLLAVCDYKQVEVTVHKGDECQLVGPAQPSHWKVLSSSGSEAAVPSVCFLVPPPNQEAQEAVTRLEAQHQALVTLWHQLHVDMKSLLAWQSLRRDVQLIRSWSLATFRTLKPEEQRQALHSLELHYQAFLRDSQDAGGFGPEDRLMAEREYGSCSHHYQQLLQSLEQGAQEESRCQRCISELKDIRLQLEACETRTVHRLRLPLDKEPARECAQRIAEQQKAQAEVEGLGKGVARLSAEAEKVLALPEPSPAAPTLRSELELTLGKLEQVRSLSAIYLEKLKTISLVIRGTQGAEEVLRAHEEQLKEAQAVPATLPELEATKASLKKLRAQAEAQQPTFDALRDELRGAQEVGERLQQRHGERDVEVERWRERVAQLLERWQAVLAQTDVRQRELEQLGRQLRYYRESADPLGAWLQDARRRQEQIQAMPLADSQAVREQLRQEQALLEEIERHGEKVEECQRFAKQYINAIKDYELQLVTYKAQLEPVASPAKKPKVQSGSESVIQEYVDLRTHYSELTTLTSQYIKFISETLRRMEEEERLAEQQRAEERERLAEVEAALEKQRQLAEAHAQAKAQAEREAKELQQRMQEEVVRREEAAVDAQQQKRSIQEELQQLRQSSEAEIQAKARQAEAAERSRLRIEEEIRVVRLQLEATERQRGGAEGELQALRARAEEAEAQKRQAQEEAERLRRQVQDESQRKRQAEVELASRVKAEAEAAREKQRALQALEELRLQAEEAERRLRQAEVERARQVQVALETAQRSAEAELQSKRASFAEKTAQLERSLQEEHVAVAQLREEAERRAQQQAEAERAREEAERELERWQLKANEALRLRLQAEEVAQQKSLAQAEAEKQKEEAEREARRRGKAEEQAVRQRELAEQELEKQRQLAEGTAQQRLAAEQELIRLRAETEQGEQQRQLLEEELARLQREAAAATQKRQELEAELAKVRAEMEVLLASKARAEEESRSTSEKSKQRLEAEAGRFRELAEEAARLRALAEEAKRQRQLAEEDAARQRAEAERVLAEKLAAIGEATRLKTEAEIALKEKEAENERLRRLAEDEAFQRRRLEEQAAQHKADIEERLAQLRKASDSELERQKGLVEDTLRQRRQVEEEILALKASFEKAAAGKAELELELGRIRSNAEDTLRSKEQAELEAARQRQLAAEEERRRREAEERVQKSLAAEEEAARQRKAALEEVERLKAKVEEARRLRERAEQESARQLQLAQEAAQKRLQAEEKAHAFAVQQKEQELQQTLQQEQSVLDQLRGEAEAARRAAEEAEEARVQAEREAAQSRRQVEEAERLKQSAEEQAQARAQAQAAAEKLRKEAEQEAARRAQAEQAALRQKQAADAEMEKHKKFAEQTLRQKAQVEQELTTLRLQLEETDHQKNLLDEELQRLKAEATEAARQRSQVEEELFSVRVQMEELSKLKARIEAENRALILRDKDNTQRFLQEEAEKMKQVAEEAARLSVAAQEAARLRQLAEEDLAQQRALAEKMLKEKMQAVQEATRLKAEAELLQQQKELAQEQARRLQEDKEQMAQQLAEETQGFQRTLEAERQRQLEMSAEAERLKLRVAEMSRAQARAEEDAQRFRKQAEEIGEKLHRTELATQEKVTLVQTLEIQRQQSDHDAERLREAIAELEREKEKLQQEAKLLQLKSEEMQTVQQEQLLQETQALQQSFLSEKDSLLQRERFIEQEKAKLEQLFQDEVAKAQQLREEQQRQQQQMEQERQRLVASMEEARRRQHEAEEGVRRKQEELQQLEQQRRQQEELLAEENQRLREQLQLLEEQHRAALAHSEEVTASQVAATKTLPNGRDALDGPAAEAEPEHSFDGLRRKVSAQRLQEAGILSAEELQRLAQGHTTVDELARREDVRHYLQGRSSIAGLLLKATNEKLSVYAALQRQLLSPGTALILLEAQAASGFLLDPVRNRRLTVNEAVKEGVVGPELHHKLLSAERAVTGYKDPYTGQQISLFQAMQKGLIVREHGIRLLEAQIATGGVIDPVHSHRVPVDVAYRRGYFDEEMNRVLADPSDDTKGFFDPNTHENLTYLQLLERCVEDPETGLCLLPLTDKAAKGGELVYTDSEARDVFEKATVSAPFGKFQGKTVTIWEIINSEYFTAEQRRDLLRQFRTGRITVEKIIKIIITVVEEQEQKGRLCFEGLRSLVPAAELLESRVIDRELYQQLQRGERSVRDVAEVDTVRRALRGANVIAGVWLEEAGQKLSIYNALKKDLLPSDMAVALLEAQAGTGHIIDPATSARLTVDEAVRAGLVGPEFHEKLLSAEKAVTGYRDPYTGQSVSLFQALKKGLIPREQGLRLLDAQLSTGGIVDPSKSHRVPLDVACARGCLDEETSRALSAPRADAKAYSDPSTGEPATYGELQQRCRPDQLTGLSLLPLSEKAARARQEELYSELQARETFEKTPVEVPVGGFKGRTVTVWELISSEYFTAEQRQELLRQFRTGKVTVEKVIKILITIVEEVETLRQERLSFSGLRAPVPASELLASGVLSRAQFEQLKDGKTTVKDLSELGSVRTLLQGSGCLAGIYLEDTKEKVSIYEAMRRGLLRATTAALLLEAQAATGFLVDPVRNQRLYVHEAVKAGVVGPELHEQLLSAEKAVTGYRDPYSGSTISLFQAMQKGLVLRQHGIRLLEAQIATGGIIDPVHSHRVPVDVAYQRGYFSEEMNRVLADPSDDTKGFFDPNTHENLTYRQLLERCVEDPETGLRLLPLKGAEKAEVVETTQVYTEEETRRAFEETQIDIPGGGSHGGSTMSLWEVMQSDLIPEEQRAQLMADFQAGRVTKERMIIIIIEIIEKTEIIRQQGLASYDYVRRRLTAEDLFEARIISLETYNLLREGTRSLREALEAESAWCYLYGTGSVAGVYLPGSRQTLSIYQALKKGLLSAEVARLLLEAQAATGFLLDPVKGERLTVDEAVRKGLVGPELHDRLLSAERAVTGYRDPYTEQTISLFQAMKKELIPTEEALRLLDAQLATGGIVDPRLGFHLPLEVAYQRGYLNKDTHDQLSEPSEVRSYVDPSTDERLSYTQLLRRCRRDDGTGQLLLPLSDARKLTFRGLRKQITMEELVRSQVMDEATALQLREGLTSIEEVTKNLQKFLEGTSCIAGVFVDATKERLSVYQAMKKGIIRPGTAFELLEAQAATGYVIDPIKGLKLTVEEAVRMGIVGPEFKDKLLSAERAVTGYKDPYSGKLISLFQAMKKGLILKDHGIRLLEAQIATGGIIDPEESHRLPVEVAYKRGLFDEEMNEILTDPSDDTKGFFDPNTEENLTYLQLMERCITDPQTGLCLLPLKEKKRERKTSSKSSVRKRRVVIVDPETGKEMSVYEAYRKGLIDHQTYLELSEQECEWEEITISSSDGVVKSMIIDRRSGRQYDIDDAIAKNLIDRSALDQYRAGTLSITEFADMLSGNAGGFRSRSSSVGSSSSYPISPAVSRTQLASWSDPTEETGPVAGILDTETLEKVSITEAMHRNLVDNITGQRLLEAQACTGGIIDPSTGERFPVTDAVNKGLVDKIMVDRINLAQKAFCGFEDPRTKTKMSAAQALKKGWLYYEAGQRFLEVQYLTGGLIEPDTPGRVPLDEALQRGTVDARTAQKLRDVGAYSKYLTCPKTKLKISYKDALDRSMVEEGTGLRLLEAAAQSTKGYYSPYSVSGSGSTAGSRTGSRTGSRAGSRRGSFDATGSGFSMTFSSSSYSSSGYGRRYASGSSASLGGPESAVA
UniProt Q96BD5: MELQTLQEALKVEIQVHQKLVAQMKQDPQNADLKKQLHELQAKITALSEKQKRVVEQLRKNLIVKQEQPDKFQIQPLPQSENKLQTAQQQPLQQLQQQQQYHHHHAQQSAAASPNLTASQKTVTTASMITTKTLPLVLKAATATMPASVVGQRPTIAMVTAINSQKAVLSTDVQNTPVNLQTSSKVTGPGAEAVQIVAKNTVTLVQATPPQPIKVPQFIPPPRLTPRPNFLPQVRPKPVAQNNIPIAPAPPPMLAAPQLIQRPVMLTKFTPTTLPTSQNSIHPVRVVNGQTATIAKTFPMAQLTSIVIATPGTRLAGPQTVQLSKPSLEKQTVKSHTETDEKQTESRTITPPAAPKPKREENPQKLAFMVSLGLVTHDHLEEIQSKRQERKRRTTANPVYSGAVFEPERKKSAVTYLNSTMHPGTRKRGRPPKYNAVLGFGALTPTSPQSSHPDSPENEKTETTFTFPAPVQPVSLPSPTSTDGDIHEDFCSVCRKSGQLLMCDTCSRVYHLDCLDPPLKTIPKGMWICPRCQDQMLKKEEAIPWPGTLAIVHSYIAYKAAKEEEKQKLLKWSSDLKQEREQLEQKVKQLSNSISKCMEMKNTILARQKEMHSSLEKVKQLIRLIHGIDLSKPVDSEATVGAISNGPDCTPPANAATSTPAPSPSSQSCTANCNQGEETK
UniProt Q9BTU6: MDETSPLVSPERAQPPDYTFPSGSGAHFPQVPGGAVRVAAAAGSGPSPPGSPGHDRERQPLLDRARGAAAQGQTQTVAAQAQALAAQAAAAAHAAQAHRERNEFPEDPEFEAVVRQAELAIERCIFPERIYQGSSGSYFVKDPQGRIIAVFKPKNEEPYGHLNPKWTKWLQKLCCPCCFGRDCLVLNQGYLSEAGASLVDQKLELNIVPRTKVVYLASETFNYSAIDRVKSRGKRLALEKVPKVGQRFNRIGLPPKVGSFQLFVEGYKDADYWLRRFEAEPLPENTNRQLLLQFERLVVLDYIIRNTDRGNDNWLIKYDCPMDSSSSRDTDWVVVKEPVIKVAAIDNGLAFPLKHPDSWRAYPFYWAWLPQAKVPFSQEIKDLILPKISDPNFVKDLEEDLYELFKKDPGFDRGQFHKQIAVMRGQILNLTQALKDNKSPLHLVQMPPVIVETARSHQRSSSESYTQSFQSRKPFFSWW
UniProt Q96BK5: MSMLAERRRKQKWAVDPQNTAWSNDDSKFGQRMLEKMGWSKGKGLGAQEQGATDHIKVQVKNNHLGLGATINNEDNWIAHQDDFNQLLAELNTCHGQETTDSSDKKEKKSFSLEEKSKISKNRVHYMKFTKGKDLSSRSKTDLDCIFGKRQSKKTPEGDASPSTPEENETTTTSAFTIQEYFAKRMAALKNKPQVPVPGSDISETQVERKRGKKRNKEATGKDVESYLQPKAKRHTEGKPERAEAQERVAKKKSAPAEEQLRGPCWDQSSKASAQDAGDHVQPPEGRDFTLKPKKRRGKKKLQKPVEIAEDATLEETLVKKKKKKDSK

Tests used:
Assay in all cases: log2 fold change, soluble protein after heating vs DMSO (PISA); higher = thermal stabilisation; K562 lysate, 10 uM; active = over 0.2 and 3.5 SD of the protein, either way, in both replicates (recomputed)
nilotinib = compound: Cc1cn(-c2cc(NC(=O)c3ccc(C)c(Nc4nccc(-c5cccnc5)n4)c3)cc(C(F)(F)F)c2)cn1 [nilotinib]
In short: (§1)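 Pellets of K562 cells were dounce-homogenised in PBS pH 7.4 with 1 mM MgCl2, and the crude extract was held at 1 mg/mL protein for a 30 min treatment with 10 μM compound. Aliquots were heated for 3 min over 48°C-58°C and pooled before NP-40 was added to 0.5% at 4°C. The supernatant from 21,000xg for 90 min was quantified by TMTpro 16plex LC-MS/MS with channel sums equalised. Values are reported from duplicates as log-two fold change in thermal stability relative to solvent controls.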

[1] = compound: Cc1nc(Nc2n[nH]c3c2CN(C(=O)N[C@H](CN(C)C)c2ccccc2)C3(C)C)c2sccc2n1
In short: as §1

dasatinib = compound: Cc1nc(Nc2ncc(C(=O)Nc3c(C)cccc3Cl)s2)cc(N2CCN(CCO)CC2)n1 [dasatinib]
In short: as §1

[2] = compound: Cc1ncc(-c2ccnc(Nc3ccc(S(C)(=O)=O)cc3)n2)n1C(C)C
In short: as §1

[3] = compound: Cn1cc(-c2ccc3c(c2)CCN3C(=O)Cc2cccc(C(F)(F)F)c2)c2c(N)ncnc21
In short: as §1

quisinostat = compound: Cn1cc(CNCC2CCN(c3ncc(C(=O)NO)cn3)CC2)c2ccccc21 [quisinostat]
In short: as §1

tipifarnib = compound: Cn1cncc1[C@@](N)(c1ccc(Cl)cc1)c1ccc2c(c1)c(-c1cccc(Cl)c1)cc(=O)n2C [tipifarnib]
In short: as §1

[4] = compound: NC(=O)Nc1cc(-c2cccc(F)c2)sc1C(=O)N[C@H]1CCCNC1
In short: as §1

[5] = compound: NC(=O)c1cnc(N[C@@H]2CCCC[C@@H]2N)nc1Nc1cccc(-n2nccn2)c1
In short: as §1

[6] = compound: NC1(c2ccc(-c3nc4ccn5c(=O)[nH]nc5c4cc3-c3ccccc3)cc2)CCC1
In short: as §1

Target	log2 fold change (nilotinib)	log2 fold change [1]	log2 fold change (dasatinib)	log2 fold change [2]	log2 fold change [3]	log2 fold change (quisinostat)	log2 fold change (tipifarnib)	log2 fold change [4]	log2 fold change [5]	log2 fold change [6]
PI4KB (UniProt Q9UBF8)	inactive: 0.003	inactive: 0.145	inactive: 0.002	inactive: 0.165	inactive: 0.013	inactive: -0.072	inactive: -0.024	inactive: -0.026	inactive: -0.049	inactive: -0.014
PGRMC1 (UniProt O00264)	inactive: 0.028	inactive: 0.015	inactive: 0.026	inactive: -0.078	inactive: 0.012	inactive: 0.106	inactive: 0.003	inactive: -0.059	inactive: 0.017	inactive: 0.056
PIP4P1 isoform 2 (UniProt Q86T03)	inactive: 0.005	inactive: 0.022	inactive: -0.019	inactive: 0.056	inactive: -0.027	inactive: 0.052	inactive: -0.01	inactive: -0.04	inactive: 0.007	inactive: -0.013
PHC1 (UniProt P78364)	inactive: 0.054	inactive: 0.023	inactive: 0.087	inactive: -0.024	inactive: -0.049	inactive: -0.003	inactive: -0.02	inactive: 0.003	–	–
PIGU (UniProt Q9H490)	inactive: -0.047	inactive: 0.014	inactive: -0.009	inactive: 0.073	inactive: 0.036	inactive: -0.044	inactive: 0.031	inactive: 0.031	inactive: 0.074	inactive: -0.044
PITPNA (UniProt Q00169)	inactive: 0.006	inactive: 0.01	inactive: 0.033	inactive: -0.018	inactive: 0.022	inactive: -0.007	inactive: 0.022	inactive: 0.003	inactive: -0.009	inactive: 0.004
PIP4K2A (UniProt P48426)	inactive: 0.041	inactive: -0.006	inactive: 0.068	inactive: 0.141	inactive: 0.046	inactive: -0.001	inactive: -0.062	inactive: 0.039	inactive: -0.012	inactive: -0.056
PLCD1 isoform 2 (UniProt P51178)	inactive: 0.004	inactive: -0.021	inactive: -0.014	inactive: 0.014	inactive: 0.021	inactive: -0.039	inactive: 0.005	inactive: -0.023	inactive: 0.014	inactive: -0.023
PHPT1 (UniProt Q9NRX4)	inactive: 0.004	inactive: -0.027	inactive: 0.03	inactive: 0.025	inactive: 0.007	inactive: 0.014	inactive: 0.056	inactive: -0.01	inactive: -0.02	inactive: 0.073
PLEC (UniProt Q15149)	inactive: -0.011	inactive: -0.016	inactive: 0.136	inactive: -0.003	inactive: -0.026	inactive: -0.026	inactive: -0.03	inactive: 0.019	inactive: 0.009	inactive: -0.004
PGM2 (UniProt Q96G03)	inactive: 0.014	inactive: -0.005	inactive: 0.016	inactive: 0.028	inactive: 0.005	inactive: 0.005	inactive: 0.008	inactive: -0.017	inactive: -0.002	inactive: 0.019
PHB2 (UniProt Q99623)	inactive: 0	inactive: 0	inactive: 0.003	inactive: 0.004	inactive: 0.008	inactive: -0.013	inactive: -0.017	inactive: -0.018	inactive: -0.007	inactive: 0.006
PHF21A isoform 3 (UniProt Q96BD5)	inactive: -0.018	inactive: 0.232	inactive: 0.182	inactive: 0.03	inactive: -0.111	inactive: -0.173	inactive: -0.144	inactive: 0.14	inactive: 0.011	inactive: 0.013
PLEKHA5 isoform 6 (UniProt Q9HAU0)	inactive: -0.052	inactive: 0.032	inactive: 0.006	inactive: -0.005	inactive: 0.021	inactive: -0.011	inactive: 0.009	inactive: 0.011	inactive: -0.008	inactive: -0.003
PI4K2A (UniProt Q9BTU6)	inactive: 0.009	inactive: 0.03	inactive: -0.036	active: 0.207	inactive: -0.024	inactive: 0.01	inactive: -0.064	inactive: 0.071	active: 0.49	inactive: -0.004
PINX1 (UniProt Q96BK5)	inactive: -0.041	inactive: 0.094	inactive: -0.045	inactive: 0.025	inactive: 0.034	inactive: -0.139	inactive: -0.086	inactive: 0.034	inactive: -0.03	inactive: -0.012
PHGDH (UniProt O43175)	inactive: 0.013	inactive: -0.025	inactive: -0.077	inactive: 0.005	inactive: 0.021	inactive: -0.032	inactive: 0.018	inactive: -0.032	inactive: 0.006	inactive: 0.054
PI4K2B (UniProt Q8TCG2)	inactive: -0.037	inactive: 0.021	inactive: -0.021	inactive: 0.069	inactive: 0.092	inactive: 0.063	inactive: -0.036	inactive: 0.076	active: 0.689	inactive: 0.009
PLEKHF1 (UniProt Q96S99)	inactive: -0.03	inactive: -0.028	inactive: -0.016	inactive: 0.012	inactive: -0.027	inactive: -0.009	inactive: -0.012	inactive: 0.021	inactive: -0.002	inactive: -0.023
PI4KA (UniProt P42356)	inactive: -0.025	inactive: 0.055	inactive: -0.098	inactive: 0.015	inactive: 0.043	inactive: -0.076	inactive: -0.031	inactive: 0.041	inactive: 0.003	inactive: 0.019
PKN1 isoform 2 (UniProt Q16512)	inactive: -0.014	inactive: -0.098	inactive: -0.14	inactive: -0.002	inactive: 0	inactive: 0.102	inactive: 0.009	inactive: -0.128	inactive: -0.054	inactive: -0.004
PIN4 isoform 2 (UniProt Q9Y237)	inactive: 0.038	inactive: -0.026	inactive: -0.002	inactive: -0.015	inactive: 0.001	inactive: 0.041	inactive: -0.017	inactive: 0	inactive: -0.034	inactive: 0.002
PLAA (UniProt Q9Y263)	inactive: 0.015	inactive: -0.003	inactive: -0.017	inactive: -0.002	inactive: 0.016	inactive: -0.024	inactive: 0.012	inactive: 0.019	inactive: -0.018	inactive: -0.001
PISD (UniProt Q9UG56)	inactive: -0.019	inactive: 0.019	inactive: 0.008	inactive: 0.008	inactive: 0.088	inactive: -0.017	inactive: 0.006	inactive: 0.133	inactive: 0.044	inactive: 0.031
PLCB2 (UniProt Q00722)	inactive: -0.091	inactive: -0.08	inactive: 0.081	inactive: 0.032	inactive: 0.104	inactive: -0.104	inactive: -0.009	inactive: 0.002	inactive: -0.197	inactive: -0.002
PIP (UniProt P12273)	inactive: 0.315	inactive: -0.105	inactive: 0.117	inactive: 0.079	inactive: 0.444	inactive: 0.017	inactive: -0.299	inactive: -0.251	inactive: 0.398	inactive: 0.19
PLA2G15 (UniProt Q8NCC3)	inactive: 0.013	inactive: -0.003	inactive: 0.004	inactive: -0.002	inactive: 0.009	inactive: -0.1	inactive: 0.014	inactive: 0.008	inactive: -0.041	inactive: 0.005
PIK3C3 (UniProt Q8NEB9)	inactive: -0.001	inactive: -0.011	inactive: -0.05	inactive: 0.062	inactive: -0.025	inactive: -0.022	inactive: -0.054	inactive: 0.027	inactive: 0.04	inactive: -0.008
PIKFYVE (UniProt Q9Y2I7)	inactive: 0.017	inactive: -0.017	inactive: -0.022	inactive: -0.015	inactive: 0.009	inactive: -0.014	inactive: -0.035	inactive: 0.007	inactive: 0.027	inactive: -0.005
PICALM (UniProt Q13492)	inactive: -0.012	inactive: -0.01	inactive: -0.036	inactive: -0.009	inactive: 0.001	inactive: -0.003	inactive: -0.042	inactive: -0.018	inactive: 0.012	inactive: 0.007

Given in markdown: entries from further up

| Target | log2 fold change (nilotinib) | log2 fold change [1] | log2 fold change (dasatinib) | log2 fold change [2] | log2 fold change [3] | log2 fold change (quisinostat) | log2 fold change (tipifarnib) | log2 fold change [4] | log2 fold change [5] | log2 fold change [6] |
| --- | --- | --- | --- | --- | --- | --- | --- | --- | --- | --- |
| PIGU (UniProt Q9H490) | inactive: -0.047 | inactive: 0.014 | inactive: -0.009 | inactive: 0.073 | inactive: 0.036 | inactive: -0.044 | inactive: 0.031 | inactive: 0.031 | inactive: 0.074 | inactive: -0.044 |
| PITPNA (UniProt Q00169) | inactive: 0.006 | inactive: 0.01 | inactive: 0.033 | inactive: -0.018 | inactive: 0.022 | inactive: -0.007 | inactive: 0.022 | inactive: 0.003 | inactive: -0.009 | inactive: 0.004 |
